In patent publication US6372742B1, “Substituted indole compounds and methods of their use” (Geron Corporation, priority 1999, dated 2002):
Some results were stated once for a whole list of compounds, not compound by compound.

The chains behind the UniProt entries cited, without tags or fusion partners. Where a name states a change or a piece, a line headed by the entry shows the natural chain unless it says otherwise.
UniProt O14746: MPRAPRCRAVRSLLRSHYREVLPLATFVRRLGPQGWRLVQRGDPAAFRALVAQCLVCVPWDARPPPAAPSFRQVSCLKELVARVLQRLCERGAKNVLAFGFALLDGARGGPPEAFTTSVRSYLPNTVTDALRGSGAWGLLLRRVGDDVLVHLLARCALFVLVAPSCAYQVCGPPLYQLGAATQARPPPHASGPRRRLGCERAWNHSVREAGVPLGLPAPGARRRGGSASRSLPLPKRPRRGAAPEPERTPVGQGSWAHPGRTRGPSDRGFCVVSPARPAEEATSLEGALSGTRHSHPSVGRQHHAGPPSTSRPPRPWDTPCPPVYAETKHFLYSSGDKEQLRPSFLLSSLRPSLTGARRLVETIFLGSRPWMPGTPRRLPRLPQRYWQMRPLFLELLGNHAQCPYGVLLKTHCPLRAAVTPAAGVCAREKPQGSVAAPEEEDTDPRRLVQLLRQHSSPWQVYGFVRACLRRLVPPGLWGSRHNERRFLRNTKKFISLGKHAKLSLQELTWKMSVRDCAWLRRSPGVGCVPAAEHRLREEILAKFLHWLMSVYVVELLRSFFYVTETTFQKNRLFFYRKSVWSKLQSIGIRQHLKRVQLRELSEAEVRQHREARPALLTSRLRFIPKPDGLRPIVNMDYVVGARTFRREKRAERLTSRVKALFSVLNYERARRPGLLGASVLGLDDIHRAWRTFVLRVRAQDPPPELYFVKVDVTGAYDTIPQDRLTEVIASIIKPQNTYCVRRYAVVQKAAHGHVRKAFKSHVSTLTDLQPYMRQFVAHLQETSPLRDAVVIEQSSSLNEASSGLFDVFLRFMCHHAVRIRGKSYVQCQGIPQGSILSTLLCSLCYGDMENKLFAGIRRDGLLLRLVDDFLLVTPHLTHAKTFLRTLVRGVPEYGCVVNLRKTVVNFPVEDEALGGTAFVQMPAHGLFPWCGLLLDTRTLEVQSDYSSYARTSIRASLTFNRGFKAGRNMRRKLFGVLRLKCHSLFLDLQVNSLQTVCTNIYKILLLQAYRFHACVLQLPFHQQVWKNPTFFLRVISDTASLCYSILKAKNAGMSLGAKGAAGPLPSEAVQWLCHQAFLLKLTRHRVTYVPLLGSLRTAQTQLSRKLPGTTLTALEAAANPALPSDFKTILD

Target: T1, telomerase (Homo sapiens, UniProt O14746)
T1 construct: made in house; host or cells: 293 cells over-expressing hTERT
Assay: Bio-Tel FlashPlate telomerase activity assay
Type: biochemical
Conditions: affinity-purified telomerase extract from 293 cells over-expressing hTERT; 30 min preincubation, 90 min at 37° C.

| Molecule | IC50 [µM] |
| --- | --- |
| 5-[5-chloro-N-(3-trifluoromethyl)-isatin-3-ylidene]-2,4-dioxo-thiazolidine-dione [Example 18] | < 100 |
| 5-[6-benzoyl-N-(3,4-dichloro)-isatin-3-ylidene]-2,4-dioxo-thiazolidine-dione [Example 19] | < 100 |
| 5-[N-(2-(methoxycarbonyl)thien-3-ylsulfonyl)-isatin-3-ylidene]-2,4-dioxo-thiazolidine-dione [Example 12] | < 100 |
| O=C1NC(=O)/C(=C/c2cn(Cc3ccc(Cl)c(Cl)c3)c3ccc(OCc4ccccc4)cc23)S1 [Example 1, 5-benzyloxy-N-(3,4-dichlorophenyl)-3-(2,4-dioxo-thiazolidin-5-ylidene-methyl)-indole] | < 100 |
| O=C1NC(=O)/C(=C2/C(=O)N(Cc3c(Cl)cccc3Cl)c3ccccc32)S1 [Example 2, 5-[N-(2,6-dichlorobenzyl)-isatin-3-ylidene]-2,4-dioxo-thiazolidinedione] | < 100 |
| O=C1NC(=O)/C(=C/c2cn(S(=O)(=O)c3cccs3)c3ccc(OCc4ccccc4)cc23)S1 [Example 3, 5-benzyloxy-3-(2,4-dioxo-thiazolidin-5-ylidenemethyl)-N-(2-thienylsulfonyl)-indole] | < 100 |
| Cc1ccc(S(=O)(=O)N2C(=O)/C(=C3\SC(=O)NC3=O)c3cc(Cl)ccc32)cc1 [Example 4, 5-[5-chloro-N-(p-tolylsulfonyl)-isatin-3-ylidene]-2,4-dioxo-thiazolidine-dione] | < 100 |
| O=C1NC(=O)/C(=C2/C(=O)N(Cc3c(Cl)cccc3Cl)c3ccc(S(=O)(=O)Nc4ccccc4)cc32)S1 [Example 5, 5-[5-(phenylaminosulfonyl)-N-(2,6-dichlorobenzyl)isatin-3-ylidene]-thiazolidinedione] | < 100 |
| N#CCCN1C(=O)/C(=C2\SC(=O)NC2=O)c2cc(Cl)ccc21 [Example 6, 5-[5-chloro-N-(2-cyanoethyl)isatin-3-ylidene]-thiazolidinedione] | < 100 |
| O=C1NC(=O)/C(=C2/C(=O)N(S(=O)(=O)c3ccc([N+](=O)[O-])cc3)c3ccc(Cl)cc32)S1 [Example 7, 5-[5-chloro-N-(p-nitrosulfonyl)-isatin-3-ylidene]-2,4-dioxo-thiazolidine-dione] | < 100 |
| O=C1NC(=O)/C(=C/c2cn(C(=O)c3ccc(Cl)c(Cl)c3)c3ccc(OCc4ccccc4)cc23)S1 [Example 8, 5-benzyloxy-N-(3,4-dichlorobenzoyl)-3-(2,4-dioxo-thiazolidin-5-ylidene-methyl)-indole] | < 100 |
| O=C1NC(=O)C(Cc2cn(Cc3ccc(Cl)c(Cl)c3)c3ccc(OCc4ccccc4)cc23)S1 (centres unmarked) [Example 10, 5-benzyloxy-N-(3,4-dichlorophenyl)-3-(2,4-dioxo-thiazolidin-5-ylmethyl)-indole] | < 100 |
| O=C1NC(=O)/C(=C/c2c(-c3ccc(Cl)cc3)n(Cc3ccc(Cl)c(Cl)c3)c3ccccc23)S1 [Example 11, 2-(4-chlorophenyl)-N-(3,4-dichlorophenyl)-3-(2,4-dioxo-thiazolidin-5-ylidene-methyl)-indole] | < 100 |
| O=C1NC(=O)/C(=C2/C(=O)N(Cc3cccc(Cl)c3)c3ccccc32)S1 [Example 13, 5-[N-(3-chlorobenzyl)-isatin-3-ylidene]-2,4-dioxo-thiazolidine-dione] | < 100 |
| O=C1NC(=O)/C(=C2/C(=O)N(Cc3c(Cl)cccc3Cl)c3ccc(Cl)cc32)S1 [Example 14, 5-[5-chloro-N-(2,6-dichlorobenzyl)-isatin-3-ylidene]-2,4-dioxo-thiazolidine-dione] | < 100 |
| O=C1NC(=O)/C(=C2/C(=O)N(Cc3c(Cl)cccc3Cl)c3cc(Cl)ccc32)S1 [Example 15, 5-[6-chloro-N-(2,6-dichlorobenzyl)-isatin-3-ylidene]-2,4-dioxo-thiazolidine-dione] | < 100 |
| Cc1ccc2c(c1)/C(=C1/SC(=O)NC1=O)C(=O)N2Cc1c(Cl)cccc1Cl [Example 16, 5-[5-methyl-N-(2,6-dichlorobenzyl)-isatin-3-ylidene]-2,4-dioxo-thiazolidine-dione] | < 100 |
| O=C1NC(=O)/C(=C2/C(=O)N(Cc3ccc(Cl)c(Cl)c3)c3cc(Cl)c(Cl)cc32)S1 [Example 17, 5-[5,6-dichloro-N-(3,4-dichlorobenzyl)-isatin-3-ylidene]-2,4-dioxo-thiazolidine-dione] | < 100 |
| O=C1NC(=O)/C(=C2/C(=O)N(Cc3c(Cl)cccc3Cl)c3ccc(S(=O)(=O)Nc4ccc(Cl)cc4)cc32)S1 [Example 21, 5-[5-(4-chlorophenylaminosulfonyl)-N-(2,6-dichlorobenzyl)isatin-3-ylidene]-thiazolidinedione] | < 100 |
| CC(C)c1ccc(NS(=O)(=O)c2ccc3c(c2)/C(=C2/SC(=O)NC2=O)C(=O)N3Cc2ccc(Cl)c(Cl)c2)cc1 [Example 22, 5-[5-(4-isopropylphenylaminosulfonyl)-N-(3,4-dichlorobenzyl)isatin-3-ylidene]-thiazolidinedione] | < 100 |
| O=C1NC(=O)/C(=C2/C(=O)N(Cc3ccc(Cl)c(Cl)c3)c3ccc(S(=O)(=O)Nc4ccccc4)cc32)S1 [Example 23, 5-[5-(phenylaminosulfonyl)-N-(3,4-dichlorobenzyl)isatin-3-ylidene]-thiazolidinedione] | < 100 |

| Molecule | IC50 [µM] |
| --- | --- |
| O=C1NC(=O)/C(=C2/C(=O)N(Cc3ccc(Cl)c(Cl)c3)c3ccc(S(=O)(=O)Nc4cccc(C(F)(F)F)c4)cc32)S1 [Example 25, 5-[5-(3-trifluoromethylphenylaminosulfonyl)-N-(3,4-dichlorobenzyl)-isatin-3-ylidene]-thiazolidinedione] | < 100 |
| CCN1CCN(S(=O)(=O)c2ccc3c(c2)/C(=C2/SC(=O)NC2=O)C(=O)N3Cc2ccc(Cl)c(Cl)c2)CC1 [Example 26, 5-[5-(4-ethylpiperazinylsulfonyl)-N-(3,4-dichlorobenzyl)-isatin-3-ylidene]-thiazolidinedione] | < 100 |
| Cc1ccc(CNS(=O)(=O)c2ccc3c(c2)/C(=C2/SC(=O)NC2=O)C(=O)N3Cc2ccc(Cl)c(Cl)c2)cc1 [Example 27, 5-[5-(4-methylbenzylaminosulfonyl)-N-(3,4-dichlorobenzyl)-isatin-3-ylidene]-thiazolidinedione] | < 100 |
| O=C1NC(=O)/C(=C2/C(=O)N(Cc3ccc(Cl)c(Cl)c3)c3ccc(S(=O)(=O)NCc4ccc5c(c4)OCO5)cc32)S1 [Example 28, 5-[5-(3,4-methylenedioxybenzylaminosulfonyl)-N-(3,4-dichlorobenzyl)-isatin-3-ylidene]-thiazolidinedione] | < 100 |
| O=C1NC(=O)/C(=C2/C(=O)N(Cc3ccc(Cl)c(Cl)c3)c3ccc(S(=O)(=O)N4CCN(c5ccccc5)CC4)cc32)S1 [Example 29, 5-[5-(4-phenylpiperazinylsulfonyl)-N-(3,4-dichlorobenzyl)-isatin-3-ylidene]-thiazolidinedione] | < 100 |
| O=C1NC(=O)/C(=C2/C(=O)N(Cc3ccc(Cl)c(Cl)c3)c3ccc(S(=O)(=O)Nc4ccc(N5CCOCC5)cc4)cc32)S1 [Example 30, 5-[5-(4-morpholinophenylaminosulfonyl)-N-(3,4-dichlorobenzyl)-isatin-3-ylidene]-thiazolidinedione] | < 100 |
| O=C1NC(=O)/C(=C2/C(=O)N(Cc3ccc(Cl)c(Cl)c3)c3ccc(S(=O)(=O)NCc4ccc5ccccc5c4)cc32)S1 [Example 31, 5-[5-(naphth-2-ylmethylaminosulfonyl)-N-(3,4-dichlorobenzyl)-isatin-3-ylidene]-thiazolidinedione] | < 100 |
| O=C1NC(=O)/C(=C2/C(=O)N(Cc3ccc(Cl)c(Cl)c3)c3ccc(S(=O)(=O)NCCc4ccc(Cl)c(Cl)c4)cc32)S1 [Example 32] | < 100 |
| O=C1NC(=O)/C(=C2/C(=O)N(Cc3ccc(Cl)c(Cl)c3)c3ccc(S(=O)(=O)Nc4ccc(Oc5ccccc5)cc4)cc32)S1 [Example 33] | < 100 |
| O=C1NC(=O)/C(=C2/C(=O)N(Cc3ccc(Cl)c(Cl)c3)c3ccc(S(=O)(=O)Nc4ccccc4O)cc32)S1 [Example 34] | < 100 |
| O=C1NC(=O)/C(=C2/C(=O)N(Cc3ccc(Cl)c(Cl)c3)c3ccc(S(=O)(=O)NCCCCCCO)cc32)S1 [Example 35] | < 100 |
| O=C1NC(=O)/C(=C2/C(=O)N(Cc3ccc(Cl)c(Cl)c3)c3ccc(S(=O)(=O)NC4CCCCC4)cc32)S1 [Example 36] | < 100 |
| CCCc1ccccc1NS(=O)(=O)c1ccc2c(c1)/C(=C1/SC(=O)NC1=O)C(=O)N2Cc1ccc(Cl)c(Cl)c1 [Example 37] | < 100 |
| CC(C)c1cccc(C(C)C)c1NS(=O)(=O)c1ccc2c(c1)/C(=C1/SC(=O)NC1=O)C(=O)N2Cc1ccc(Cl)c(Cl)c1 [Example 38] | < 100 |
| CCOCCn1cc(/C=C2\SC(=O)NC2=O)c2cc(OCc3ccccc3)ccc21 [Example 39, 5-benzyloxy-N-(2-ethoxyethyl)-3-(2,4-dioxo-thiazolidin-5-ylidene-methyl)-indole] | < 100 |
| CC(C)(C)C(=O)n1cc(/C=C2\SC(=O)NC2=O)c2cc(OCc3ccccc3)ccc21 [Example 40, 5-benzyloxy-N-(pivaloyl)-3-(2,4-dioxo-thiazolidin-5-ylidene-methyl)-indole] | < 100 |
| O=C1NC(=O)/C(=C/c2cn(Cc3cccc(Oc4ccccc4)c3)c3ccc(OCc4ccccc4)cc23)S1 [Example 41, 5-benzyloxy-N-(3-phenoxybenzyl)-3-(2,4-dioxo-thiazolidin-5-ylidene-methyl)-indole] | < 100 |
| O=C1NC(=O)/C(=C/c2cn(Cc3cccc(Oc4ccccc4)c3)c3c(OCc4ccccc4)cccc23)S1 [Example 42, 7-benzyloxy-N-(3-phenoxybenzyl)-3-(2,4-dioxo-thiazolidin-5-ylidene-methyl)-indole] | < 100 |
| COc1ccc2c(c1)c(/C=C1\SC(=O)NC1=O)cn2Cc1ccc(Cl)c(Cl)c1 [Example 43, 5-methoxy-N-(3,4-dichlorobenzyl)-3-(2,4-dioxo-thiazolidin-5-ylidene-methyl)-indole] | < 100 |
| COc1cccc(C(=O)n2cc(/C=C3\SC(=O)NC3=O)c3cc(OCc4ccccc4)ccc32)c1 [Example 44, 5-benzyloxy-N-(3-methoxybenzoyl)-3-(2,4-dioxo-thiazolidin-5-ylidene-methyl)-indole] | < 100 |
